# According to PubChem BioAssay AID493014 (National Center for Advancing Translational Sciences (NCATS), 2011):
# The list shows a part of the results. These are further read-outs of the screen, such as a control signal, another cell line or another target. No call is given for them. The list favours compounds with an active or inconclusive main result. Words in brackets tell the shape of the fitted curve; partial curves, single points and poor fits give uncertain potencies.
# Experiment: qHTS Assay to Find Inhibitors of Chronic Active B-Cell Receptor Signaling
# Details: ABC-DLBCL IkBa-CBG/CBR reporter, luminescence ratio (green luciferase fused to IkBa over red control in TMD8 lymphoma cells), 4 h
# Procedure, shortened: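 Cell line TMD8 (human ABC DLBCL), stably expressing tet-inducible CBG68-IkBa fusion and CBR; IMDM/0.5% FBS; cpd up to 46 uM; dox induction, 4 h, 37C/5% CO2; dual luminescence; green/red ratio; MG132 control.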
# [1] = measured here: CBR red luminescence, cell number
# [2] = measured here: IkBa-CBG green luminescence
Compound,AC50 [1],AC50 [2]
C=CCn1cccc(C(=O)Nc2ccc(SC)cc2)c1=O,"35.5 µM [falling, single point]",
COC(=O)c1ccc(-c2ccc(Cl)cc2)nc1C,"0.731 µM [rising, full curve]",
Cc1ccc(Nc2sc(C(=O)c3ccccc3)c(N)c2C(=O)Nc2ccc(Cl)cc2)cc1,"28.2 µM [falling, single point]",
CC(=C1C(=O)c2ccccc2C1=O)N1CCC(C(N)=O)(N2CCCCC2)CC1,"3.66 µM [rising, full curve]",
COc1ccc2c(c1OC)C(=O)OC2Nc1nc(-c2ccccc2)cs1 (stereo not given),"18.4 µM [falling, partial curve, poor fit]","9.2 µM [rising, partial curve, poor fit]"
COc1ccc(C2CC(C(C)(C)C)=NN2c2ccc(S(N)(=O)=O)cc2)cc1 (stereo not given),"16.4 µM [rising, single point]",
O=C1OC(c2ccc(Br)cc2)=N/C1=C\c1ccco1,"7.08 µM [falling, full curve]",
Cc1c2c(n3c(nc4ccccc43)c1C#N)N(c1ccccc1)CC2,"18.4 µM [falling, partial curve]",
CCCCn1c(=O)[nH]c(=O)c2c1nc(-c1ccc([N+](=O)[O-])cc1)n2CC,"5.62 µM [rising, partial curve, poor fit]",
CCN(CC(=O)Nc1c(F)cccc1F)C(=O)c1ccc(S(=O)(=O)N2CCCCCC2)cc1,"18.4 µM [rising, single point]",
C/C(CC(=O)Nc1cccc(C(F)(F)F)c1)=N\NC(=O)c1cnccn1,"12.6 µM [falling, partial curve, poor fit]",
O=C1CCCCC1C(=O)c1cn(-c2ccc(Cl)c(Cl)c2)nn1 (stereo not given),"0.631 µM [falling, full curve, poor fit]",
COc1ccc(C(=O)c2c(C)c3ccccc3n2CC(O)CNC(C)C)cc1 (stereo not given),"23.1 µM [falling, single point]",
O=c1[nH]c(=O)n(-c2ccccc2)c2c1C(C(F)(F)F)(C(F)(F)F)N=C(C1CCCCC1)N2,"5.8 µM [rising, full curve, poor fit]",
Clc1ccc(Cn2c(-c3cccnc3Cl)nc3ccccc32)c(Cl)c1,"35.5 µM [falling, single point]",
Cc1nc(N2CCCCC2)c2c(C)c(C(=O)Nc3cccc(C(F)(F)F)c3)sc2n1,"3.16 µM [rising, partial curve]",
CCc1ccc(OCCNc2cc(N3CCNC(C)C3)ccc2[N+](=O)[O-])cc1 (stereo not given),"4.11 µM [rising, single point]",
CN(CC(=O)Nc1ccccc1Br)C(=O)Cn1[nH]c(=O)c2ccccc2c1=O,"6.51 µM [rising, single point]",
CSc1cccc(CNC(=O)C2CCC(=O)N(CC3CCCCC3)C2)c1 (stereo not given),"25.1 µM [falling, single point]",
COc1ccc(NC(=O)N2CCCC2C(=O)Nc2ccc(C)c(Cl)c2)cc1 (stereo not given),"3.16 µM [rising, partial curve, poor fit]",
COc1cccc(-c2nc(CS(=O)(=O)CC(=O)N3CCCCC3)c(C)o2)c1,"35.5 µM [falling, partial curve, poor fit]",

Compound,AC50 [1],AC50 [2]
c1ccc(-c2ccc(C3=Nn4c(nnc4-c4cc(-c5ccccc5)n[nH]4)SC3)cc2)cc1,"6.31 µM [falling, partial curve, poor fit]",
O=C(Nc1cccc(C(F)(F)F)c1)Oc1ccccc1N1CCOCC1,"12.6 µM [rising, partial curve]",
COC(=O)c1sccc1NC(=O)Nc1cccc(F)c1,"11.2 µM [falling, partial curve, poor fit]",
CC(C)c1ccc(S(=O)(=O)N2CCN(C(=O)CN3C(=O)NC(C)(c4ccccc4)C3=O)CC2)cc1 (stereo not given),"32.6 µM [falling, partial curve, poor fit]",
CN1C(=O)/C(=C2\SC(=S)N(NC(=O)c3cccnc3)C2=O)c2ccccc21,"17.8 µM [falling, single point]",
CCOc1ccc(C(=O)Cn2cnc3ccccc3c2=O)cc1,"0.112 µM [falling, full curve, poor fit]",
O=C(Nc1cc(Cl)cc(Cl)c1)c1coc(=O)c(Br)c1,"35.5 µM [falling, single point]",
CCCCCCNC(=O)c1c(O)c2cccc3c2n(c1=O)CCC3,"4.61 µM [rising, single point]",
COc1ccc(Br)cc1C(=O)Nc1cccc(NC(=O)c2ccco2)c1,"11.2 µM [falling, partial curve]",
O=C(O)c1sccc1Oc1ccc(NS(=O)(=O)c2ccc(Cl)cc2)cc1,"1.26 µM [rising, full curve]",
CNC(=O)NC(=O)C(C)OC(=O)c1oc2ccccc2c1CSc1ccc(Cl)cc1 (stereo not given),"23.1 µM [rising, single point]",
Oc1ccc(/C=N/n2c3ccccc3c3ccccc32)cc1,"6.51 µM [rising, single point]","5.17 µM [falling, partial curve, poor fit]"
COc1ccc2c(=O)c(Oc3ccc(C(=O)O)cc3)c(C(F)(F)F)oc2c1,"12.6 µM [falling, partial curve]",
COc1ccc(C(=O)NC(=S)N2CCC(C)CC2)cc1Br,"7.08 µM [rising, partial curve, poor fit]",
COc1ccc(S(=O)(=O)N2CN(Cc3ccco3)c3nc4ccccc4nc32)cc1,"16.4 µM [falling, single point]",
Cc1c(C)n(CCCN(C)C)c2ncnc(Nc3ccc(F)cc3)c12,"3.98 µM [falling, partial curve, poor fit]",
O=C(NC1CC1)c1ccc2c(c1)NC(=O)c1ccccc1S2,"6.51 µM [rising, single point]",
CC12CCC3c4ccc(O)cc4CCC3C1CC(O)C2O (stereo not given),"29.1 µM [rising, single point]",
O=C(CCN1C(=O)/C(=C/c2ccccc2Cl)SC1=S)NC1C=CS(=O)(=O)C1 (stereo not given),"12.6 µM [falling, partial curve]",
CN(c1ccccc1C(=O)N1CCN(c2ccccc2F)CC1)S(=O)(=O)c1ccccc1,"35.5 µM [falling, single point]",
Cc1cc(C)c2nc(N(CCCN(C)C)C(=O)c3ccc4c(c3)OCCO4)sc2c1,"0.259 µM [falling, full curve, poor fit]",

Compound,AC50 [1],AC50 [2]
O=C1CCCc2ccccc2N1Cc1ccccc1,"3.55 µM [falling, partial curve, poor fit]",
COc1ccc(/C=N/NC(=O)c2ccn[nH]2)cc1COc1ccc(Cl)cc1Cl,"12.6 µM [falling, partial curve, poor fit]",
CCOC(=O)c1[nH]c(C(=O)O)c(OC(=O)CC)c1C,"25.1 µM [rising, single point]",
COC(=O)CSCC(=O)Nc1nnc(-c2ccccc2C)s1,"6.31 µM [falling, partial curve]",
Cc1cc(C)c([C@@H]2C[C@H]3CN(C4CCCC4)C(=O)[C@]34CCCN24)c(-n2cccn2)c1,"25.1 µM [rising, single point]",
COc1ccc(C(=O)COC(=O)c2ccc(Cl)nc2)c(OC)c1,"25.9 µM [rising, single point]",
O=C(CCCCCN1C(=O)c2ccccc2C1=O)Oc1ccc2c3c(c(=O)oc2c1)CCC3,"0.517 µM [rising, full curve, poor fit]",
O=C(CSc1nncn1-c1ccccc1)Nc1ccccc1F,"35.5 µM [falling, single point]",
O=C(Nc1ccc(-c2nc3ccccc3o2)c(O)c1)c1cc(-n2cnnc2)ccc1Cl,"25.9 µM [rising, partial curve, poor fit]",
CC(C)CN(CCCNC(=O)c1cc(=O)[nH]c2ccc(S(=O)(=O)N3CCCC3)cc12)CC(C)C,"3.16 µM [falling, partial curve, poor fit]",
CCn1c(=S)sc2c(=O)n(CC(=O)Nc3cccc(Br)c3)c(C)nc21,"12.6 µM [falling, partial curve, poor fit]",
CC(=O)c1c(C)[nH]c(-c2ccccc2)c1C,"3.66 µM [rising, full curve]","23.1 µM [falling, single point]"
c1ccc(-c2nnc(CN3CCCCC3)o2)cc1,"35.5 µM [falling, single point]",
O=C(NCc1ccco1)C1CCC(CNS(=O)(=O)c2cccc3cccnc23)CC1 (stereo not given),"0.00651 µM [falling, full curve, poor fit]",
CCCCN(C(=O)c1cc2c(s1)CCC2)c1c(N)n(CC(C)C)c(=O)[nH]c1=O,"32.6 µM [rising, single point]",
CCOC(=O)c1cnn(-c2ccc(Cl)cc2)c1C1CCN(C(=O)OC(C)(C)C)CC1,"23.1 µM [rising, single point]",
O=c1oc2ccccc2cc1-c1csc(Nc2ccc(O)cc2)n1,"28.2 µM [falling, single point]",
O=C(Cn1ncc2c1-c1ccccc1OC2)N1CCN(Cc2ccc3c(c2)OCO3)CC1,"6.51 µM [falling, single point]",
Cc1cc(C)nc(NS(=O)(=O)c2ccc(NC(=O)CCC3COc4ccccc4O3)cc2)n1 (stereo not given),"0.731 µM [falling, partial curve, poor fit]",
c1ccc(N2CCN(c3nc(NCc4ccco4)c4ccccc4n3)CC2)cc1,"3.66 µM [rising, partial curve, poor fit]",

# 15 of the compounds above, with tabs:
Compound	AC50 [1]	AC50 [2]
CC(C)c1ccc(S(=O)(=O)N2CCN(C(=O)CN3C(=O)NC(C)(c4ccccc4)C3=O)CC2)cc1 (stereo not given)	32.6 µM [falling, partial curve, poor fit]	
CN1C(=O)/C(=C2\SC(=S)N(NC(=O)c3cccnc3)C2=O)c2ccccc21	17.8 µM [falling, single point]	
CCOc1ccc(C(=O)Cn2cnc3ccccc3c2=O)cc1	0.112 µM [falling, full curve, poor fit]	
O=C(Nc1cc(Cl)cc(Cl)c1)c1coc(=O)c(Br)c1	35.5 µM [falling, single point]	
CCCCCCNC(=O)c1c(O)c2cccc3c2n(c1=O)CCC3	4.61 µM [rising, single point]	
COc1ccc(Br)cc1C(=O)Nc1cccc(NC(=O)c2ccco2)c1	11.2 µM [falling, partial curve]	
O=C(O)c1sccc1Oc1ccc(NS(=O)(=O)c2ccc(Cl)cc2)cc1	1.26 µM [rising, full curve]	
CNC(=O)NC(=O)C(C)OC(=O)c1oc2ccccc2c1CSc1ccc(Cl)cc1 (stereo not given)	23.1 µM [rising, single point]	
Oc1ccc(/C=N/n2c3ccccc3c3ccccc32)cc1	6.51 µM [rising, single point]	5.17 µM [falling, partial curve, poor fit]
COc1ccc2c(=O)c(Oc3ccc(C(=O)O)cc3)c(C(F)(F)F)oc2c1	12.6 µM [falling, partial curve]	
COc1ccc(C(=O)NC(=S)N2CCC(C)CC2)cc1Br	7.08 µM [rising, partial curve, poor fit]	
COc1ccc(S(=O)(=O)N2CN(Cc3ccco3)c3nc4ccccc4nc32)cc1	16.4 µM [falling, single point]	
Cc1c(C)n(CCCN(C)C)c2ncnc(Nc3ccc(F)cc3)c12	3.98 µM [falling, partial curve, poor fit]	
O=C(NC1CC1)c1ccc2c(c1)NC(=O)c1ccccc1S2	6.51 µM [rising, single point]	
CC12CCC3c4ccc(O)cc4CCC3C1CC(O)C2O (stereo not given)	29.1 µM [rising, single point]	
